Measurements: patent publication US20100056570A1, “FUNGICIDES” (Syngenta Crop Protection, Inc., priority 2006, published 2010)
Some of these results come from one statement about several compounds together.

Key:
[1] = system: Erysiphe graminis f.sp. tritici; test: Erysiphe graminis f.sp. tritici (wheat powdery mildew) wheat leaf segment assay, preventive; format: in vivo; conditions: 200 ppm; wheat leaf segments; assessed four days after inoculation
Septoria tritici = Septoria tritici (leaf blotch) growth inhibition in nutrient broth, microtiter plate; format: cell-based; conditions: 200 ppm; PDB broth, 24 C, inhibition of growth photometrically after 72 hrs
Fusarium culmorum = Fusarium culmorum (root rot) growth inhibition in nutrient broth, microtiter plate; format: cell-based; conditions: 200 ppm; PDB broth, 24 C, inhibition of growth photometrically after 48 hrs
[2] = system: Puccinia recondita f.sp. tritici; test: Puccinia recondita f.sp. tritici (wheat brown rust) wheat leaf segment assay, preventive; format: in vivo; conditions: 200 ppm; wheat leaf segments; assessed nine days after inoculation
Septoria nodorum = Septoria nodorum (wheat glume blotch) wheat leaf segment assay, preventive; format: in vivo; conditions: 200 ppm; wheat leaf segments; assessed four days after inoculation
Phytophthora infestans = format: in vivo; conditions: 200 ppm; tomato leaf disks; assessed four days after inoculation
Plasmopara viticola = Plasmopara viticola (downy mildew of grapevine) grapevine leaf disk assay, preventive; format: in vivo; conditions: 200 ppm; grapevine leaf disks; assessed seven days after inoculation
Pythium ultimum = Pythium ultimum (Damping off) growth inhibition in potato dextrose broth, microtiter plate; format: cell-based; conditions: 20 ppm, 24° C., inhibition of growth photometrically after 48 hours
Pyricularia oryzae = format: in vivo; conditions: 200 ppm; rice leaf segments; assessed four days after inoculation

Measured: control of fungal infection

CSC(Oc1cc2cc(Br)cnc2cc1F)C(=O)NC(C)c1ccccc1 (stereo not drawn) [181 (6)]
at least 60%: [1]

C#CC(C)(C)NC(=O)C(Oc1cc2cc(I)cnc2cc1F)SC (stereo not drawn) [238 (7)]
not listed: Pythium ultimum | Pyricularia oryzae
at least 60%: all other assays above

CC#CC(C)(C)NC(=O)C(Oc1cc2cc(Br)cnc2cc1F)SC (stereo not drawn) [244 (6)]
not listed: [2] | Pyricularia oryzae
at least 60%: all other assays above

COCC#CC(C)(C)NC(=O)C(Oc1cc2cccnc2cc1F)SC (stereo not drawn) [251 (10)]
at least 60%: Phytophthora infestans | Plasmopara viticola | Pythium ultimum

CSC(Oc1cc2cc(Br)cnc2cc1F)C(=O)NC(C)(C)CCF (stereo not drawn) [275 (6)]
at least 60%: [1]

CC#CC(C)(C)NC(=O)C(Oc1cc2cc(Br)cnc2cc1Cl)SC (stereo not drawn) [244 (2)]
at least 60%: Septoria tritici

COCC#CC(C)(C)NC(=O)C(Oc1cc2cc(I)cnc2cc1F)SC (stereo not drawn) [251 (7)]
not listed: [2] | Pythium ultimum
at least 60%: all other assays above

CCC(C)(C)NC(=O)C(Oc1cc2cc(Br)cnc2cc1C)SC (stereo not drawn) [16 (13)]
at least 60%: Septoria tritici

COCCC#CC(C)(C)NC(=O)C(Oc1cc2cc(Br)cnc2cc1F)SC (stereo not drawn) [277 (6)]
not listed: Fusarium culmorum | [2] | Pythium ultimum
at least 60%: all other assays above

C#CC(C)(C)NC(=O)C(Oc1cc2cc(Br)cnc2cc1C)SC (stereo not drawn) [238 (13)]
at least 60%: Septoria tritici | Phytophthora infestans | [1]

CSC(Oc1cc2cc(Br)cnc2cc1F)C(=O)NC1CC1 (stereo not drawn) [86 (6)]
at least 60%: [1]

CSC(Oc1cc2cc(I)cnc2cc1F)C(=O)NC(C)(C)CCF (stereo not drawn) [275 (7)]
at least 60%: Septoria tritici | Pyricularia oryzae | Phytophthora infestans | [1] | Pythium ultimum

CSC(Oc1cc2cc(Br)cnc2cc1F)C(=O)NC(C)(C)COCc1ccccc1 (stereo not drawn) [224 (6)]
at least 60%: Septoria tritici

COC(=O)C(C)(C)NC(=O)C(Oc1cc2cc(Br)cnc2cc1F)SC (stereo not drawn) [60 (6)]
at least 60%: Plasmopara viticola

CSC(Oc1cc2cc(Br)cnc2cc1F)C(=O)NCc1cccc(F)c1 (stereo not drawn) [291 (6)]
at least 60%: Septoria tritici

CCCNC(=O)C(Oc1cc2cc(Br)cnc2cc1F)SC (stereo not drawn) [284 (6)]
at least 60%: Septoria tritici | Fusarium culmorum | [1]

CSC(Oc1cc2cc(Br)cnc2cc1F)C(=O)NC(C)c1ccsc1 (stereo not drawn) [287 (6)]
at least 60%: Septoria tritici

CSC(Oc1cc2cc(I)cnc2cc1F)C(=O)NC(C)(C)C (stereo not drawn) [12 (7), 2-(3-iodo-7-fluoro-quinolin-6-yloxy)-N-tert-butyl-2-methylsulfanyl-acetamide]
at least 60%: Fusarium culmorum

CSC(Oc1cc2cc(Br)cnc2cc1F)C(=O)NC(C)(C#N)C(C)C (stereo not drawn) [38 (6)]
at least 60%: Septoria tritici | Plasmopara viticola | [1]

COCC#CC(C)(C)NC(=O)C(Oc1cc2cc(Br)cnc2cc1F)SC (stereo not drawn) [251 (6), 2-(3-Bromo-7-fluoro-quinolin-6-yloxy)-N-(4-methoxy-1,1-dimethyl-but-2-ynyl)-2-methylsulfanyl-acetamide]
at least 60%: Fusarium culmorum | Pyricularia oryzae

CSC(Oc1cc2cc(Br)cnc2cc1F)C(=O)NC(C)(C)C#CCCCCl (stereo not drawn) [256 (6)]
at least 60%: Septoria tritici | Septoria nodorum | Phytophthora infestans | Plasmopara viticola | [1]

CCOCC(C)(C)NC(=O)C(Oc1cc2cc(Br)cnc2cc1F)SC (stereo not drawn) [68 (6)]
at least 60%: Septoria tritici | [2] | Septoria nodorum | Pyricularia oryzae | [1]

CSC(Oc1cc2cccnc2cc1F)C(=O)NC(C)(C)C (stereo not drawn) [12 (10)]
at least 60%: Septoria nodorum | Phytophthora infestans | Pythium ultimum

COCC#CC(C)(C)NC(=O)C(Oc1cc2cc(Br)cnc2cc1C)SC (stereo not drawn) [251 (13)]
not listed: [2] | Phytophthora infestans | Pyricularia oryzae
at least 60%: all other assays above

CSC(Oc1cc2cc(Br)cnc2cc1F)C(=O)NC1CCCC1 (stereo not drawn) [95 (6)]
at least 60%: Septoria tritici | Plasmopara viticola

CSC(Oc1cc2cc(Br)cnc2cc1F)C(=O)NCCC1OCCO1 (stereo not drawn) [281 (6)]
at least 60%: Septoria tritici | Septoria nodorum | [1] | Pythium ultimum

CSC(Oc1cc2cc(Br)cnc2cc1F)C(=O)NCC1CCCO1 (stereo not drawn) [278 (6)]
not listed: Fusarium culmorum | [2]
at least 60%: all other assays above

COCC(C)(C#N)NC(=O)C(Oc1cc2cc(Br)cnc2cc1C)SC (mixture of isomers) [52 (13)]
at least 60%: Septoria tritici | Phytophthora infestans | [1] | Pythium ultimum

CSC(Oc1cc2cc(Br)cnc2cc1F)C(=O)NC(C)(C)C (stereo not drawn) [12 (6), 2-(3-Bromo-7-fluoro-quinolin-6-yloxy)-N-tert-butyl-2-methylsulfanyl-acetamide]
at least 60%: Fusarium culmorum | Phytophthora infestans

CC#CC(C)(C)NC(=O)C(Oc1cc2cc(Br)cnc2cc1C)SC (stereo not drawn) [244 (13)]
at least 60%: Septoria nodorum

COCC#CC(C)(C)NC(=O)C(Oc1cc2cc(Br)cnc2cc1Cl)SC (stereo not drawn) [251 (2)]
at least 60%: Septoria tritici | [2] | Plasmopara viticola

COCC(C)(C#N)NC(=O)C(Oc1cc2cc(Br)cnc2cc1Cl)SC (mixture of isomers) [52 (2)]
at least 60%: Septoria tritici

CC#CC(C)(C)NC(=O)C(Oc1cc2cc(I)cnc2cc1F)SC (stereo not drawn) [244 (7)]
not listed: [1] | [2] | Pythium ultimum
at least 60%: all other assays above

C#CCOCC(C)(C)NC(=O)C(Oc1cc2cc(Br)cnc2cc1C)SC (stereo not drawn) [221 (13)]
at least 60%: Septoria tritici | Phytophthora infestans | Plasmopara viticola | [1] | Pythium ultimum

C#CC(C)(C)NC(=O)C(Oc1cc2cc(Br)cnc2cc1F)SC (stereo not drawn) [238 (6)]
not listed: [2] | Phytophthora infestans | Plasmopara viticola
at least 60%: all other assays above

CSC(Oc1cc2cc(Br)cnc2cc1F)C(=O)NC(C)(C)c1ccccc1 (stereo not drawn) [189 (6)]
at least 60%: [1]

CSC(Oc1cc2cc(Br)cnc2cc1F)C(=O)NCc1ccco1 (stereo not drawn) [122 (6)]
at least 60%: Septoria tritici

COCC(C)NC(=O)C(Oc1cc2cc(Br)cnc2cc1F)SC (stereo not drawn) [264 (6)]
not listed: Fusarium culmorum | Phytophthora infestans | Pyricularia oryzae
at least 60%: all other assays above

CSC(Oc1cc2cc(Br)cnc2cc1F)C(=O)NC(C)C1CC1 (stereo not drawn) [235 (6)]
at least 60%: Septoria tritici | Septoria nodorum | Plasmopara viticola | [1] | Pythium ultimum

C#CC(C)(C)NC(=O)C(Oc1cc2cccnc2cc1F)SC (stereo not drawn) [238 (10)]
at least 60%: Phytophthora infestans | Plasmopara viticola | [1]
